Measurements published in the supplement of paper PMC10689618.
Counter-ions that a name gives are not always drawn. The list shows a part of the results. Single values are uncertain, as repeats are few or missing.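 Primary human fetal astrocytes engulfed labelled rat cortical synaptosomes, measured as a red/green ratio corrected for calcein live-cell signal and scaled to the plate median. Toxicity meant calcein falling over 30%; decreased phagocytosis meant below 70% of median above 5 µM.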

tested on: Human fetal astrocytes; assay: synaptosome phagocytosis (pHrodo/calcein intensity ratio) relative to plate median of data wells; higher = more phagocytosis; conditions: 2.78 µM; 24 h

How did the synaptosome phagocytosis turn out when `COc1cc(O)cc(OC)c1OC` was run?
The synaptosome phagocytosis was 93.7%.

`Nc1ccc(C(=O)O)c(O)c1` was tested. Which synaptosome phagocytosis did it give?
Its synaptosome phagocytosis is 89.5%.

With `Cc1cc(-c2ccccc2)nnc1NCCN1CCOCC1` as the molecule, how does the synaptosome phagocytosis read?
The synaptosome phagocytosis was 111%.

How did the synaptosome phagocytosis turn out when `C=C1c2c(Cl)ccc(O)c2C(O)=C2C(=O)[C@]3(O)C(O)=C(C(N)=O)C(=O)[C@@H](N(C)C)[C@@H]3[C@@H](O)[C@H]12.O=C(O)c1cc(S(=O)(=O)O)ccc1O` was run?
Its synaptosome phagocytosis is 105%.

Which synaptosome phagocytosis does the source give for `CCCCCCCCCc1ccc(OCCOCCOCCOCCOCCOCCOCCOCCOCCO)cc1` here?
Its synaptosome phagocytosis is 70.9%.

`O=C1CCc2ccc(OCCCCN3CCN(c4cccc(Cl)c4Cl)CC3)cc2N1` was tested. Which synaptosome phagocytosis did it give?
Its synaptosome phagocytosis is 50.8%.

For `NC(=O)c1cc[n+](CC2=C(C(=O)O)N3C(=O)[C@@H](NC(=O)[C@@H](c4ccccc4)S(=O)(=O)[O-])[C@H]3SC2)cc1`, which synaptosome phagocytosis is on record?
Its synaptosome phagocytosis is 94.6%.

`CC(C)=CC1C(C(=O)O)C1(C)C` (centres undefined) was tested. Which synaptosome phagocytosis did it give?
The synaptosome phagocytosis was 110%.

For `CCC(C)C(=O)OC1[C@@H]2CC3=C4CC(=O)O[C@@H](c5ccoc5)[C@]4(C)CCC3[C@@](C)(C2=O)[C@@H](CC(=O)OC)C1(C)C` (some centres undefined), which synaptosome phagocytosis is on record?
Its synaptosome phagocytosis is 97%.

How did the synaptosome phagocytosis turn out when `C/C=C1\[C@H]2C=C(C)C[C@]1(N)c1ccc(=O)[nH]c1C2` was run?
Its synaptosome phagocytosis is 112%.

Which synaptosome phagocytosis does the source give for `Nc1cc(C(Cl)=C(Cl)Cl)c(S(N)(=O)=O)cc1S(N)(=O)=O` here?
Its synaptosome phagocytosis is 85.2%.

Which synaptosome phagocytosis does the source give for `CC(C)(C(=O)O)c1ccc(C(O)CCCN2CCC(C(O)(c3ccccc3)c3ccccc3)CC2)cc1` (centres undefined) [Fexofenadine hydrochloride] here?
The synaptosome phagocytosis was 119%.

`CO[C@@]1(NC(=O)C(C(=O)O)c2ccc(O)cc2)C(=O)N2C(C(=O)O)=C(CSc3nnnn3C)CO[C@@H]21` (some centres undefined) was tested. Which synaptosome phagocytosis did it give?
The synaptosome phagocytosis was 105%.

For `Cc1ncc(CO)c(CO)c1O`, which synaptosome phagocytosis is on record?
Its synaptosome phagocytosis is 103%.

`CCOc1ccc(NC(C)=O)cc1` was tested. Which synaptosome phagocytosis did it give?
The synaptosome phagocytosis was 109%.

With `COc1cc(C(=O)N2CCOCC2)cc(OC)c1OC` as the molecule, how does the synaptosome phagocytosis read?
The synaptosome phagocytosis was 96.5%.

For `CO[C@H]1C[C@H](O[C@H]2[C@H](C)[C@@H](O[C@@H]3O[C@H](C)C[C@H](N(C)C)[C@H]3O)[C@@H](C)C[C@@]3(CO3)C(=O)[C@H](C)[C@@H](O)[C@@H](C)[C@@H](C)OC(=O)[C@@H]2C)O[C@@H](C)[C@@H]1O`, which synaptosome phagocytosis is on record?
Its synaptosome phagocytosis is 108%.

For `COC(=O)[C@H]1[C@H]2C[C@H]3c4[nH]c5cc(OC)ccc5c4CCN3C[C@H]2C[C@@H](OC(=O)c2cc(OC)c(OC)c(OC)c2)[C@@H]1OC`, which synaptosome phagocytosis is on record?
The synaptosome phagocytosis was 98.1%.

Which synaptosome phagocytosis does the source give for `CCOc1ccc(C(=O)c2ccc(OC)c(O)c2O)cc1` here?
Its synaptosome phagocytosis is 100%.

How did the synaptosome phagocytosis turn out when `Cc1ncc(C[n+]2csc(CCO)c2C)c(N)n1` was run?
Its synaptosome phagocytosis is 115%.

Which synaptosome phagocytosis does the source give for `CCC(=O)OCC(=O)[C@@]1(OC(=O)CC)[C@@H](C)C[C@H]2[C@@H]3CCC4=CC(=O)C=C[C@]4(C)[C@@]3(F)[C@@H](O)C[C@@]21C` here?
The synaptosome phagocytosis was 113%.

`O=C1C(CC[S+]([O-])c2ccccc2)C(=O)N(c2ccccc2)N1c1ccccc1` (centres undefined) was tested. Which synaptosome phagocytosis did it give?
Its synaptosome phagocytosis is 103%.

Which synaptosome phagocytosis does the source give for `CCCN(CCC)S(=O)(=O)c1ccc(C(=O)O)cc1` here?
Its synaptosome phagocytosis is 95.9%.

With `CC1(C)S[C@@H]2[C@H](N3C(=O)[C@@H](c4ccccc4)NC3(C)C)C(=O)N2[C@H]1C(=O)O` as the molecule, how does the synaptosome phagocytosis read?
The synaptosome phagocytosis was 111%.

For `COc1c(O)cc(O)cc1O`, which synaptosome phagocytosis is on record?
Its synaptosome phagocytosis is 129%.

Which synaptosome phagocytosis does the source give for `Cc1c(N(C)C)c(=O)n(-c2ccccc2)n1C` here?
Its synaptosome phagocytosis is 73.2%.

`C[N+](C)(C)CCOP(=O)(O)OP(=O)([O-])OC[C@H]1O[C@@H](n2ccc(N)nc2=O)[C@H](O)[C@@H]1O` was tested. Which synaptosome phagocytosis did it give?
The synaptosome phagocytosis was 114%.

`COC(=O)C[C@H]1C(C)(C)[C@@H](OC(C)=O)[C@@H]2CC3C4CC(=O)O[C@@H](c5ccoc5)[C@]4(C)CCC3[C@@]1(C)C2=O` (some centres undefined) was tested. Which synaptosome phagocytosis did it give?
The synaptosome phagocytosis was 113%.

With `CCOc1ccc2ccccc2c1C(=O)N[C@@H]1C(=O)N2[C@@H]1SC(C)(C)[C@@H]2C(=O)O` as the molecule, how does the synaptosome phagocytosis read?
The synaptosome phagocytosis was 101%.

`CN1C(=O)OC(C)(C)C1=O` was tested. Which synaptosome phagocytosis did it give?
The synaptosome phagocytosis was 119%.

How did the synaptosome phagocytosis turn out when `Cn1c([N+](=O)[O-])cnc1COC(N)=O` was run?
Its synaptosome phagocytosis is 110%.

With `OC(CCN1CCCCC1)(c1ccccc1)C1CC2C=CC1C2` (centres undefined) as the molecule, how does the synaptosome phagocytosis read?
The synaptosome phagocytosis was 93.3%.

For `COc1c(-c2coc3cc4c(cc3c2=O)CC(O)C(C)(C)O4)ccc2c1C=CC(C)(C)O2` (centres undefined), which synaptosome phagocytosis is on record?
Its synaptosome phagocytosis is 108%.

With `NCCOB(c1ccccc1)c1ccccc1` as the molecule, how does the synaptosome phagocytosis read?
Its synaptosome phagocytosis is 98.5%.

How did the synaptosome phagocytosis turn out when `CC1=CCCC(C)=CCC(C)(C)C=CC1` [HUMULENE (alpha)] was run?
Its synaptosome phagocytosis is 124%.

`C=CC(C1=CC(=O)C(OC)=CC1=O)c1ccc(O)cc1` (centres undefined) was tested. Which synaptosome phagocytosis did it give?
The synaptosome phagocytosis was 127%.

For `CCC[C@@H]1C[C@@H](C(=O)N[C@@H]([C@H]2O[C@H](SC)[C@H](O)[C@@H](O)[C@H]2O)[C@@H](C)O)N(C)C1`, which synaptosome phagocytosis is on record?
Its synaptosome phagocytosis is 94.8%.

`CCOC(=O)c1c(C)cc(O)cc1O` was tested. Which synaptosome phagocytosis did it give?
Its synaptosome phagocytosis is 106%.

With `Nc1ccccc1C(=O)CC(N)C(=O)O` (centres undefined) as the molecule, how does the synaptosome phagocytosis read?
Its synaptosome phagocytosis is 95.2%.
